Patent US8062669B2, “Vectorization system comprising nanoparticles of homogenous size of at least one polymer and at least one positively charged polysaccharide and method for the preparation thereof” (Bioalliance Pharma, priority 2002, dated 2011)
At least one compound was matched to its structure with a doubt left.

Test system: NIH 3T3 EWS/Fli-1 cells
Assay: Intracellular penetration of oligodeoxynucleotides-FITC (confocal microscopy)
Type: cell-based
Conditions: 24 h incubation

For `O=C1OC2(c3ccc(O)cc3Oc3cc(O)ccc32)c2ccccc21` [FITC alone, fluorescein], the fluorescent cells was “No fluorescent cells were seen”.
